Laboratory results as given in patent US20240018262A1.
No constants are given. Whether binding was seen depends on the method and setting. Some results given as binding are weak or reduced against the parent protein; the word gives no strength.

The chains behind the UniProt entries cited, without tags or fusion partners. Residues count along the entry.
UniProt P51654, residues 25-559: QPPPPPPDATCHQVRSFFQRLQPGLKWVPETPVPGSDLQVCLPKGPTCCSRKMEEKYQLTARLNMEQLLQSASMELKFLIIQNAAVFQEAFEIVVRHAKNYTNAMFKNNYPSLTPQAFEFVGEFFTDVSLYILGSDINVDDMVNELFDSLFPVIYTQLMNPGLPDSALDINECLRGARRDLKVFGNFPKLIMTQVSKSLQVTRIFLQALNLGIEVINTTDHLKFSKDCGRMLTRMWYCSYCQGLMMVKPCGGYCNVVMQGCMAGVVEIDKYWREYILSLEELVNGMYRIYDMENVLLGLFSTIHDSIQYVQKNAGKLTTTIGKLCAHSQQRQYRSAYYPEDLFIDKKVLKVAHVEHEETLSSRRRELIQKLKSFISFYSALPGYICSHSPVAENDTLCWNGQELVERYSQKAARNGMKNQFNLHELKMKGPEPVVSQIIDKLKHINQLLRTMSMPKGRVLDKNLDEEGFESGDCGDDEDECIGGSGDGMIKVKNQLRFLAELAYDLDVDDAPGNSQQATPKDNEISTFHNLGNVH

Legend:
[1] = target: GPC3 protein (Acrobiosystems, cat #GP3-H52H4) (UniProt P51654); assay: hybridoma screening ELISA on GPC3
[2] = target: GPC3 protein (Acrobiosystems, cat #GP3-H52H4) (UniProt P51654); assay: ELISA on coated GPC3 protein

B1: 10E9 antibody (antibody, V domains shown)
VH: EVQLEESGTVLARPGASVKMSCKASGYTFTSYWMHWIKQRPGQGLEWIGAIYPGNSDTSYNQKFKGKAKLTAVTSTSTAYMELSSLTNEDSAVYYCTRGEYDYVLAYWGQGTLVTVSA
VL: DIVMTQSPATLSVTPGDSVSLSCRASQSISNNLHWYQQKSHESPRLLIKFASQSISGIPSRFSGSGSGTDFTLSINSVETEDFGMYFCQQSNSWPHMYTFGGGTKLEIK
B1 was tested, and the binding [1] was “binds” and the binding [2] was “binds”.

B2: 8B2 antibody (antibody, V domains shown)
VH: QVQLQQPGAELVKPGASVKMSCKASGYTFTSYNMHWVKQTPGQGLEWIGAIYPGNGYTSYNQKFKGKATLTADKSSSTAYMQLSSLTSEDSAVYYCARGGGPFAYWGQGTLVTVSA
VL: DIVMTQSHKFMSTSVGDRVSITCKASQDVGTAVAWYQQKPGQSPKLLIYWPSTRHTGVPDRFTGSGSGTDFTLTISNVQSEDLADYFCQQYSSYPFTFGSGTKLEIK
In the case of B2, the binding [1] is reported as “binds” and the binding [2] is reported as “binds”.

B3: 7C6 antibody (antibody, V domains shown)
VH: QVQLQQPGAELVKPGASVKLSCKASGYTFTTYYMYWVKQRPGQGLEWIGEINPSNGGTNFNEKFKSKATLTVDKSSSTAYMQLSSLTSEDSAVYYCTTFAYWGQGTLVTVSA
VL: DIVMTQSPSSLSASLGGKVTITCKASQDINKYIVWYQHKPGKGPRLLIHYTSILQPGIPSRFSGSGSGRDYSFSISNLEPEDIATYYCLQYDNLWTFGGGTKLEIK
B3 was tested, and the binding [1] was “binds” and the binding [2] was “binds”.

B4: 5E11 antibody (antibody, V domains shown)
VH: QVQLKQSGAELMKPGASVKISCKATGYTFSRYWIEWVKQRPGHGLEWIGEILPGSGSTSYNEKFKGKATFTADTSSNTAYMQLSSLTSEDSAVYYCARSARATYYFDYWGQGTTLTVSS
VL: DIQMTQTTSSLSASLGDRVTISCWASQDISNYLNWYQQKPDGTVKLLIYYTSTLHSGVPSRFSGSGSGTDYSLTISNLEQEDIATYFCQQGNALPYTFGGGTKLEIK
B4 was tested, and the binding [1] was “binds” and the binding [2] was “binds”.

B5: 1A8 antibody (antibody, V domains shown)
VH: QVQLQQPGSELVRPGASVKLSCKASGYTFTSYWMHWVKQRHGQGLEWIGNIYPGSGSTNYDEKFKSKGTLTVDTSSRTAYMHLSSLTSEDSAVYYCTRGHYDYAMDYWGQGTSVTVSS
VL: DIVMTQSPSSLSASLGDTITITCHASQNINVWLSWYQQKPGNIPKLLIYKTSNLHTGVPSRFSGSGSGTGFTLTISSLQPEDIATYYCQQGQSYPWTFGGGTKLEIK
B5 was tested, and the binding [1] was “binds” and the binding [2] was “binds”.
